Assay results published in the supplement of paper PMC3334620.
Over roughly 33,000 sequences, “E-score (-0.5 to 0.5)” has its median near -0.016; the highest 2% begin near 0.3. The list shows a part of the results.

Target: T1, Yer184c (UniProt P39961)
T1 sequence: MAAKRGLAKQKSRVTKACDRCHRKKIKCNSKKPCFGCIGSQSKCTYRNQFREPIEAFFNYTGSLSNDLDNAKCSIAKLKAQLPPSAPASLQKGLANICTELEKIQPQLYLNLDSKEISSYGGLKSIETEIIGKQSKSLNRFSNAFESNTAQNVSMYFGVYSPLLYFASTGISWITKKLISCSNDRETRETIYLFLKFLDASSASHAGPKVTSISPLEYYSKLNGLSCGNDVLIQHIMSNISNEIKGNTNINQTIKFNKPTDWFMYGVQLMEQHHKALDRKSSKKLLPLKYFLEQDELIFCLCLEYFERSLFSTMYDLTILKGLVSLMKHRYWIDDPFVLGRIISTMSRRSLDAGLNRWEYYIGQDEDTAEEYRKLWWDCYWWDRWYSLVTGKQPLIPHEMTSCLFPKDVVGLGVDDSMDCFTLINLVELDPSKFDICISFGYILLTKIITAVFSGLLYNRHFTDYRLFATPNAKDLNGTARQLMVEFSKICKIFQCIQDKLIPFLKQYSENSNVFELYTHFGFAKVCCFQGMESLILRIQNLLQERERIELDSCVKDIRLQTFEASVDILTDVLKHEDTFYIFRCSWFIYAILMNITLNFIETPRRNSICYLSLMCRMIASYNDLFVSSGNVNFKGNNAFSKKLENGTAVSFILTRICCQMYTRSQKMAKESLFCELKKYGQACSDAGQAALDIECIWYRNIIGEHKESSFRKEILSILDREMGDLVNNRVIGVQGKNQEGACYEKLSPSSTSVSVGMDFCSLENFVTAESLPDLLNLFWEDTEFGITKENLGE
Assay: PBM E-score (8-mer binding enrichment) (E-score (-0.5 to 0.5)); higher = stronger / more preferred TF binding
Conditions: protein concentration: 100 nM; construct: GST-full length
In short: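 Masliner-normalised scans of fluorescent anti-GST signal were the basis for scoring. That signal came from GST-tagged yeast transcription factors applied at about 100-200 nM to double-stranded universal all-10-mer Agilent arrays on fresh or once-stripped slides. Each ungapped eight-base word, pooled with its reverse complement, received an E-score from the Universal PBM Analysis Suite.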

Sequence | PBM E-score
GTTGATTA | 0.196
CAGCACAA | 0.0854
ACGGGGCT | -0.311
CTAATCAG | -0.00548
ATAGTCGC | -0.0857
CAACCCTA | -0.161
CGTGGCTC | -0.2
ATGTGAGA | -0.0904
ATACTGTG | -0.16
ATTACTCG | 0.239
ATCATTAC | 0.111
ACCACTCA | -0.144
CCGCATTC | 0.136
CCTCGCCC | -0.125
AAGCCAGC | -0.114
CTTCTATC | -0.0483
CCGGCCTA | 0.28
CGCGGCCA | -0.00946
GTAGCTTA | 0.0649
CATCCTCC | -0.13
AGAACTTG | 0.0365
AATGGCTG | -0.0897
ATACTCAC | -0.0138
CGTACATC | -0.231
ATGAGGGG | -0.267

Quoted at random: 5 entries already listed
Sequence | PBM E-score
ATGAGGGG | -0.267
CGTACATC | -0.231
ATACTCAC | -0.0138
CATCCTCC | -0.13
CGTGGCTC | -0.2

Going on with the list:

Sequence | PBM E-score
GAGTAAGC | -0.122
ATAACGGC | 0.147
CTGTCGCA | -0.138
ATTGCTTA | 0.137
ACCAGAAT | -0.0372
ACACATCG | -0.136
CATAAACG | 0.134
GGCGTCAA | 0.0188
ACCCGCAT | 0.0979
ATTTTGTG | 0.257
GCCCGCCA | -0.0831
CCACAGCG | -0.0604
ATTTGCAC | 0.0198
CAGCTTAG | -0.183
GATTAGAC | -0.0387
GCACATGC | -0.0502
GGTGCTAC | -0.298
CCGGATTA | 0.352
AGCGGACC | -0.00047
CTCTACAA | -0.08
GGGTCAGA | -0.136
AGATACAA | 0.255
CCAACTGC | -0.147
AAGCGGGA | -0.0907
ACAGCGGA | 0.0362

Sequence | PBM E-score
CACCGAGA | -0.212
AACCGCAC | 0.00345
CGCCCCAG | -0.135
CCTTGATC | 0.0935
ACATGAAG | 0.00621
CATCATTA | 0.188
CACAATGG | 0.0307
TTATATAA | 0.225
GAGCATGC | -0.118
AGCATATA | 0.142
AGCGGCGG | 0.222
AAGTCCCG | -0.0144
AAATTGTC | 0.0962
ACGAGAAA | 0.159
AGCTTTGC | 0.00702
AAGTTAAT | 0.085
ACATATCC | 0.0202
GAGCCTCC | -0.206
TAGATGCA | -0.0695
ACTGTTCC | -0.0232
TGCGGAAA | 0.184
AGTCGCGG | -0.111
CACTAGAG | -0.011
ACGTTACA | -0.0262
AACAGCGG | -0.102

Sequence | PBM E-score
TCTCGAAA | 0.00993
CGGGCTAG | -0.0914
GGTGGAAC | -0.0965
ACCGATCA | 0.245
ACTTTGCA | 0.167
TACTCAAA | 0.0981
CCGTGTTC | 0.228
CCAGCCTA | -0.206
ATTGGTAC | 0.0114
AACGAATC | 0.15
TACATGCA | -0.0786
CCCTTCCA | -0.0759
ACGATATC | 0.0286
GATTGAAC | 0.067
ACCCAACT | -0.126
AACCCCGC | -0.133
CAAAAACA | 0.101
AATGCTCG | -0.0329
AATTGTTA | 0.201
CAATAAAC | 0.204
CCCCGCAA | 0.0469
CCACCTTC | -0.234
CAGTGAGG | -0.341
GGTTCGAA | 0.204
CCTCTCAA | -0.0234

Sequence | PBM E-score
AGTCCCAT | -0.173
TCTGTCCA | 0.0909
CGGATTTC | 0.276
AGAGTTTC | -0.0656
GAACCCTA | 0.0642
CAGGAGTA | 0.0208
TCAGGGGA | -0.252
AAATCTCG | 0.141
GTCCGCAC | 0.0405
ACGGACGT | -0.0269
CAATTGCA | 0.0126
GATGAGCA | 0.0238
CACAAAGC | 0.0873
AATAGAAA | 0.0955
ACAAGCAG | -0.0511
CACTTGCG | -0.0504
ATGTGCGC | -0.084
CAGTGGAG | -0.0375
CGGCTTCA | 0.345
AGGCGTAG | -0.116
CCCGACCA | -0.0598
CGCTCGGC | 0.276
CCAAGTCG | 0.00149
GCAGATAA | 0.223
AATTATGA | 0.211

Part of the list above in another layout:
ATTTGCAC
  PBM E-score: 0.0198
AATAGAAA
  PBM E-score: 0.0955

Remaining list, next part:

Sequence | PBM E-score
CGAACTGA | 0.0692
CGGAGACG | 0.259
CGCCACTA | -0.227
GAACTCCA | 0.0527
TCCACAGA | -0.0958
CGCCTAAG | -0.0821
ATCGTGCG | 0.226
GCCGCTGA | 0.124
AATGCTGA | -0.0887
GACCCTCA | -0.177
GTATAAGA | -0.1
CGAAGTCC | -0.063
ATATACGC | -0.147
TGCCCGCA | 0.041
AGCTTACG | -0.138
CCCACCTC | -0.329
GAGACAGC | -0.0205
AGTGCTGG | -0.157
GCCAGACA | 0.015
GGTGTCAC | -0.0719
ATACCGGG | 0.152
CTACTGAC | -0.0616
AGGCGAGG | -0.204
ACAAACTG | -0.107
ATGTTATC | 0.155

Sequence | PBM E-score
CGGGAAGA | 0.315
ATTCTCTG | -0.057
GAGCTATA | -0.245
AGTTATCA | 0.0573
CGCCTCCG | 0.0159
AGAACTAT | 0.165
ACCCGAGC | 0.229
TGTATCAA | 0.151
AGTTGTAT | 0.159
ATTACGGG | 0.0347
GAGCGTTA | 0.00862
CTACGGAC | -0.014
GATACGGA | 0.303
ATTGGCAC | -0.0978
TAAGATCA | 0.00607
GAATATGC | 0.0187
GCAAGCCA | -0.124
AGACACCA | -0.0439
ACCCCGCA | -0.0654
CCTGTTGA | 0.069
AGAGTACA | 0.03
AGGCAAAT | 0.0186
